Values quoted from earlier work as cited in patent publication US20050118594A1, “Enzymes” (priority 2001, published 2005).
At least one structure is not confirmed: it was looked up by name or label, or the drawing left a doubt. Some results were stated once for a whole list of compounds, not compound by compound. Some ranges recur; such a range may be that of the whole group of compounds.

Details: second generation agents; for lowering of VLDL levels: compared with gemfibrozil

| SMILES | decrease of LDL levels | lowering of VLDL levels |
| --- | --- | --- |
| CC(C)(Oc1ccc(CCNC(=O)c2ccc(Cl)cc2)cc1)C(=O)O [bezafibrate] | 15-20% | to a degree similar to that produced by gemfibrozil |
| CC(C)(Oc1ccc(C2CC2(Cl)Cl)cc1)C(=O)O (centres unmarked) [ciprofibrate] | 15-20% |  |
| CC(C)OC(=O)C(C)(C)Oc1ccc(C(=O)c2ccc(Cl)cc2)cc1 [fenofibrate] | 15-20% | to a degree similar to that produced by gemfibrozil |
